The values below are quoted from earlier work in patent publication US20150072003A1, “FORMULATIONS” (Hoffmann-La Roche Inc., priority 2012, published 2015).

Molecules are shown by their SMILES.

For this data set the following is noted: general statement, no test described.

Turning to `CC(C)c1c(C(=O)Nc2ccccc2)c(-c2ccccc2)c(-c2ccc(F)cc2)n1CC[C@@H](O)C[C@@H](O)CC(=O)O` (relative stereo) [Atorvastatin, [R-(R*,R*)]-2-(4-fluorophenyl)-β,δ-dihydroxy-5-(1-methylethyl)-3-phenyl-4-[(phenylamino)carbonyl]-1H-pyrrole-1-heptanoic acid], the stability entry is “unstable, as it is susceptible to heat, moisture, low pH environment and light”.
